Consider 2 compounds from US9585382B2, “Composition comprising a pesticide and an acetal solvent” (priority 2011, dated 2017).

Molecules are shown by their SMILES. Entries after “also recorded” stand apart in the source; their conditions may differ.

The nature of data set [1]: Odor, blind test involving three persons and safety data sheets. The settings on record: blind test involving three persons.
For data set [2] the following is noted: safety data sheet (Acros Organics; TCI Europe NV); cited from earlier work.

For `COC(OC)c1ccccc1` [Benzaldehyde dimethyl acetal, reference compound], the odor result in data set [1] is “pungent odor”. The “odor as described in safety data sheet” value in data set [2] is on record as “strong note, metallic, almond”.

For the compound `COc1ccc(C(OC)OC)cc1` [p-Anisaldehyde dimethyl acetal], in data set [1], the odor result is “mild odor”. Further, the “odor as described in safety data sheet” value in data set [2] is given as “pleasant odor; also recorded: floral”.
